The list does not hold the whole screen: it gathers tests that were run many times, whatever their T/C, doses with no T/C, and many T/C values between a quarter and a half above the control. Further doses and runs are listed elsewhere. T/C: endpoint of the treated group in % of that of the vehicle group. Schedule codes are those of the source, read here as Q, the interval in days (D) or hours (H), X, the number of doses. Some entries were tested several times; their values stand side by side, smallest first. Some T/C values carry the count of animals alive at the toxicity check (mostly the fifth day); without a count, all were alive then. Some entries give survivors of the animals treated and no T/C: the source holds a T/C of zero for them, seemingly a mark for toxic or unscored doses. Counts of survivors are from the toxicity check (mostly the fifth day) where no day follows; animals may have died later. *1 amine or outer side, *2 acyl side, *3 side chain or, on linkers, in order; H or OH if unused. Where a SMILES comes first, the peptide text is derived from it. [ ]: non-standard residue; d: D form. The star is where a group is joined. X2 = CCC(=O)CC1CC(C)CC(C(=O)[*:2])N1[*:1]; X1 = CCCCCCCCC(C)C(=O)*; Aib = CC(C)(N)C(=O)O; X3 = CC(CN(C)CCO)N*
Test system: MX-1 breast xenograft, nude mice, tumor weight T/C
Assay: NCI In Vivo Anticancer Drug Screen. Data for tumor model Human Mammary Carcinoma MX-1 Xenograft (intrarenal inoculation) in NU/NU Swiss (nude) mice
Details: T/C endpoint: mean tumor weight change, higher T/C = larger tumour; for T/C: evaluated on day 11
Outline: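 Read-out: treated (T) over vehicle control (C) ratio of survival or tumor size. Dosing in animals carrying the transplanted tumor.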

[1] = dose: 600.0 mg/kg/injection, schedule: Q04DX003 (sc), vehicle: saline with Tween-80
[2] = dose: 1200.0 mg/kg/injection, schedule: Q04DX003 (sc), vehicle: saline with Tween-80
[3] = dose: 50.0 mg/kg/injection, schedule: Q01DX010 (sc), vehicle: saline with Tween-80
[4] = dose: 100.0 mg/kg/injection, schedule: Q04DX003 (sc), vehicle: suspension in saline
[5] = dose: 800.0 mg/kg/injection, schedule: Q01DX010 (sc), vehicle: saline
[6] = dose: 400.0 mg/kg/injection, schedule: Q01DX010 (sc), vehicle: Klucel (hydroxypropylcellulose) (HPC)
[7] = dose: 25.0 mg/kg/injection, schedule: Q04DX003 (sc), vehicle: Klucel (hydroxypropylcellulose) (HPC)
[8] = dose: 50.0 mg/kg/injection, schedule: Q04DX003 (sc), vehicle: Klucel (hydroxypropylcellulose) (HPC)

For C[CH2][Ge]([CH2]C)[CH2]C.C[CH2][Ge]([CH2]C)[CH2]C.C[CH2][Ge]([CH2]C)[O][Ge]([CH2]C)[CH2]C, the survivor count [1] was 2 of 6 on day 11 and the survivor count [2] was 0 of 5 on day 11.

N#Cc1nc(C#N)c(Sc2ccccc2)c(Sc2ccccc2)c1Sc1ccccc1 was tested, and the T/C [3] was 125 % of control.

With O=c1[nH]cc(F)c(=O)[nH]1 the T/C (dose: 25.0 mg/kg/injection, schedule: Q04DX003 (sc), vehicle: suspension in saline) was 81, 83, 102, 104 % of control, the survivor count (dose: 40.0 mg/kg/injection, schedule: Q01DX010 (sc), vehicle: saline) was 0 of 3 on day 11 and 1 of 3 on day 11 and the T/C (dose: 50.0 mg/kg/injection, schedule: Q04DX003 (sc), vehicle: suspension in saline) was 41, 47, 66, 69 % of control. The survivor count (dose: 80.0 mg/kg/injection, schedule: Q01DX010 (sc), vehicle: saline) was 0 of 3 on day 11, the survivor count (dose: 100.0 mg/kg/injection, schedule: Q04DX003 (sc), vehicle: saline) was 0 of 6 on day 11 and 1 of 6 on day 11 and the T/C [4] was 44 [4 of 6 alive on day 11] and 61 % of control. For the same compound, the survivor count [4] was 0 of 6 on day 11 and 2 of 6 on day 11, the survivor count (dose: 200.0 mg/kg/injection, schedule: Q04DX003 (sc), vehicle: saline) was 0 of 6 on day 11 and 1 of 6 on day 11 and the survivor count (dose: 200.0 mg/kg/injection, schedule: Q04DX003 (sc), vehicle: suspension in saline) was 0 of 6 on day 11 and 3 of 6 on day 11.

For CC(=O)NCCCCCCNC(C)=O, the T/C (dose: 400.0 mg/kg/injection, schedule: Q01DX010 (sc), vehicle: saline) was 141 % of control and the T/C [5] was 130 % of control.

With COC(=O)C(F)C(Br)C(=O)OC (configuration not stated) the survivor count (dose: 150.0 mg/kg/injection, schedule: Q04DX003 (sc), vehicle: saline with Tween-80) was 0 of 6 on day 11.

C/C=C/c1cc2n(c1)C(=O)c1cc(OC3OC(C)C(NC)C(C)(O)C3O)c(C)c(O)c1NC2O (configuration not stated) was tested, and the T/C (dose: 800.0 micrograms/kg/injection, schedule: Q04DX003 (sc), vehicle: saline) was 137 % of control.

CCCCCC[C@H]([C@H](C)O)n1cnc2c(N)ncnc21 was tested, and the survivor count [6] was 1 of 3 on day 11.

CCOC(=O)CNC(=O)CCCCSc1ncnc2nc[nH]c12 was tested, and the T/C (dose: 300.0 mg/kg/injection, schedule: Q04DX003 (sc), vehicle: saline with Tween-80) was 137 % of control and the T/C [1] was 125 % of control.

With O=NN(CCCl)C(=O)NC1CCC(=O)NC1=O (configuration not stated) the T/C (dose: 1.56 mg/kg/injection, schedule: Q01DX010 (sc), vehicle: saline with Tween-80) was 142 % of control, the survivor count (dose: 12.5 mg/kg/injection, schedule: Q01DX010 (sc), vehicle: saline with Tween-80) was 0 of 3 on day 11 and the survivor count (dose: 25.0 mg/kg/injection, schedule: Q01DX010 (sc), vehicle: saline with Tween-80) was 0 of 3 on day 11. The survivor count [3] was 0 of 3 on day 11.

For NC(=S)N/N=C/c1ccc(OC(=O)COc2ccccc2)cn1, the survivor count (dose: 2400.0 mg/kg/injection, schedule: Q04DX003 (sc), vehicle: saline with Tween-80) was 1 of 6 on day 11.

In the case of NC(=O)CC(N)C(=O)O (configuration not stated), the T/C (dose: 800.0 mg/kg/injection, schedule: Q04DX003 (sc), vehicle: saline) is reported as 139 % of control.

In the case of Cc1c2ccc3ccccc3c2c[n+]2ccccc12, the T/C (dose: 4.69 mg/kg/injection, schedule: Q04DX003 (sc), vehicle: Klucel (hydroxypropylcellulose) (HPC)) is reported as 139 % of control and the survivor count (dose: 37.5 mg/kg/injection, schedule: Q04DX003 (sc), vehicle: Klucel (hydroxypropylcellulose) (HPC)) is reported as 2 of 6 on day 11.

In the case of Cc1ccccc1N(CC1CO1)CC1CO1 (configuration not stated), the survivor count (dose: 1600.0 mg/kg/injection, schedule: Q01DX010 (sc), vehicle: suspension in saline) is reported as 0 of 3 on day 11.

In the case of O=C1C2CC=CCC2C(=O)N1SC(Cl)(Cl)Cl (configuration not stated), the survivor count [1] is reported as 2 of 6 on day 11 and the survivor count [2] is reported as 1 of 6 on day 11.

CCCCCCCCCCS(=O)CC(CO)NC(=O)/C=C/c1c(C)[nH]c(=O)[nH]c1=O (configuration not stated) was tested, and the survivor count (dose: 75.0 mg/kg/injection, schedule: Q04DX003 (sc), vehicle: distilled water + Tween-80) was 0 of 6 on day 11.

CCCCCCCCC(C)C(=O)N1CCCC1C(=O)N1C(CC(=O)CC)CC(C)CC1C(=O)NC(C)C(=O)NC(C)(C)C(=O)NC(C)(C)C(=O)NC(C(=O)NC(C)C(=O)NC(C)(C)C(=O)NC(C)(C)C(=O)NC(C)CN(C)CCO)C(C)CC (configuration not stated) (X1-P[X2]A[Aib][Aib]IA[Aib][Aib]-X3; configuration not given here) was tested, and the T/C (dose: 5.0 mg/kg/injection, schedule: Q04DX003 (sc), vehicle: Klucel (hydroxypropylcellulose) (HPC)) was 144 % of control and the survivor count (dose: 10.0 mg/kg/injection, schedule: Q04DX003 (sc), vehicle: Klucel (hydroxypropylcellulose) (HPC)) was 0 of 6 on day 11.

For CCCC(=O)O, the T/C (dose: 50.0 mg/kg/injection, schedule: Q01DX010 (sc), vehicle: saline) was 139 % of control, the T/C (dose: 200.0 mg/kg/injection, schedule: Q01DX010 (sc), vehicle: saline) was 141 % of control and the survivor count [5] was 1 of 3 on day 11. For the same compound, the survivor count (dose: 1600.0 mg/kg/injection, schedule: Q01DX010 (sc), vehicle: saline) was 0 of 3 on day 11 and the survivor count (dose: 3200.0 mg/kg/injection, schedule: Q01DX010 (sc), vehicle: saline) was 0 of 3 on day 11.

CC(=O)O[C@H]1C(=O)[C@@]2(C)[C@H]([C@H](OC(=O)c3ccccc3)[C@]3(O)C[C@H](OC(=O)[C@H](O)[C@@H](NC(=O)c4ccccc4)c4ccccc4)C(C)=C1C3(C)C)[C@]1(OC(C)=O)CO[C@@H]1C[C@@H]2O was tested, and the survivor count (dose: 200.0 mg/kg/injection, schedule: Q01DX010 (sc), vehicle: Klucel (hydroxypropylcellulose) (HPC)) was 0 of 3 on day 11 and the survivor count [6] was 0 of 3 on day 11 and 1 of 3 on day 11.

With O=NNc1ccc(Cl)cn1 the survivor count (dose: 75.0 mg/kg/injection, schedule: Q04DX003 (ip), vehicle: water) was 0 of 6 on day 11 and the survivor count (dose: 150.0 mg/kg/injection, schedule: Q04DX003 (ip), vehicle: water) was 0 of 6 on day 11.

For O=C(NO)c1cc(O)c(O)c(O)c1, the T/C (dose: 1600.0 mg/kg/injection, schedule: Q04DX003 (sc), vehicle: distilled water + Tween-80) was 138 % of control.

For C=C1C(C)C2C(Cc3ccccc3)NC(=O)C23C(OC(C)=O)/C=C/C(C)(O)CC(C)C/C=C/C3C1O (configuration not stated), the T/C (dose: 6.25 mg/kg/injection, schedule: Q04DX003 (sc), vehicle: Klucel (hydroxypropylcellulose) (HPC)) was 136 % of control, the T/C (dose: 12.5 mg/kg/injection, schedule: Q04DX003 (sc), vehicle: Klucel (hydroxypropylcellulose) (HPC)) was 4 [5 of 6 alive on day 11], 34, 106, 111 % of control and the T/C [7] was 45 and 120 % of control. The survivor count [7] was 0 of 6 on day 11 and 3 of 6 on day 11, the T/C [8] was 63 [5 of 6 alive on day 11] and 138 % of control [4 of 6 alive on day 11] and the survivor count [8] was 0 of 6 on day 11 and 1 of 6 on day 11. The survivor count (dose: 100.0 mg/kg/injection, schedule: Q04DX003 (sc), vehicle: Klucel (hydroxypropylcellulose) (HPC)) was 0 of 6 on day 11.

For Clc1ccc2nnnn2n1, the survivor count (dose: 400.0 mg/kg/injection, schedule: Q04DX003 (sc), vehicle: saline with Tween-80) was 3 of 6 on day 11 and the survivor count (dose: 800.0 mg/kg/injection, schedule: Q04DX003 (sc), vehicle: saline with Tween-80) was 2 of 6 on day 11.

Source: PubChem BioAssay AID296 (DTP/NCI, 2004)
